Assay: Effect of pH on activity of purified Udhs
Assay type: biochemical
Conditions: purified Udh, FIG. 10a

B1: P. putida enzyme: 6×-His tagged uronate dehydrogenase from P. putida KT2440 (SEQ ID NO:26), expressed in E. coli and purified (protein, listed as Pseudomonas putida)
chain: MTTTPFNRLLLTGAAGGLGKVLRERLKGYAEVLRLSDISPMAPAAGPHEEVITCDLADKAAVHTLVEGVDAIIHFGGVSTEHAFEEILGPNICGVFHVYEAARKHGVKRIIFASSNHTIGFYRQDERIDAHAPRRPDSYYGLSKCYGEDVASFYFDRYGIETVSIRIGSSFPQPQNLRMLCTWLSYDDLVQLIERGLFTPGVGHTIVYGASDNRTVWWDNRHAAHLGYVPKDSSETFRAAVEAQPAPAADDPSMVYQGGAFAVAGPFN
modifications: 6xHis tag
Q: Which pH optimum does the source give for B1 here?
A: ~7.0

— patent US8835147B2, “Cellular production of glucaric acid through recombinant expression of uronate dehydrogenase and myo-inositol oxygenase” (Massachusetts Institute of Technology, priority 2008, dated 2014)
